40 targets from the supplement of paper PMC10849652 can be followed below.

The chains behind the UniProt entries cited, without tags or fusion partners. Where a name states a change or a piece, a line headed by the entry shows the natural chain unless it says otherwise.
UniProt Q9Y5Q0: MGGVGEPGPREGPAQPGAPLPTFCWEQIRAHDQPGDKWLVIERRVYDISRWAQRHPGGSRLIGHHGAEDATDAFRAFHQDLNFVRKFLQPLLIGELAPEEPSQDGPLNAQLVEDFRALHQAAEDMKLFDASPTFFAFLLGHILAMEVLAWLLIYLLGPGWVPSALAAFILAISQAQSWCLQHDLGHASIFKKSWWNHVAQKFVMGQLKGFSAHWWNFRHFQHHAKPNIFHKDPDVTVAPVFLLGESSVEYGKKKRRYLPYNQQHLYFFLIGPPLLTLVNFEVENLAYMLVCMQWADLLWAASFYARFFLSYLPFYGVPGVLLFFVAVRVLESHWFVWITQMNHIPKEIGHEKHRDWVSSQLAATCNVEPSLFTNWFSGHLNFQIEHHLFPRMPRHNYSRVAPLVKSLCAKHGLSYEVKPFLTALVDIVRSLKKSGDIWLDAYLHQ
UniProt Q96KP1: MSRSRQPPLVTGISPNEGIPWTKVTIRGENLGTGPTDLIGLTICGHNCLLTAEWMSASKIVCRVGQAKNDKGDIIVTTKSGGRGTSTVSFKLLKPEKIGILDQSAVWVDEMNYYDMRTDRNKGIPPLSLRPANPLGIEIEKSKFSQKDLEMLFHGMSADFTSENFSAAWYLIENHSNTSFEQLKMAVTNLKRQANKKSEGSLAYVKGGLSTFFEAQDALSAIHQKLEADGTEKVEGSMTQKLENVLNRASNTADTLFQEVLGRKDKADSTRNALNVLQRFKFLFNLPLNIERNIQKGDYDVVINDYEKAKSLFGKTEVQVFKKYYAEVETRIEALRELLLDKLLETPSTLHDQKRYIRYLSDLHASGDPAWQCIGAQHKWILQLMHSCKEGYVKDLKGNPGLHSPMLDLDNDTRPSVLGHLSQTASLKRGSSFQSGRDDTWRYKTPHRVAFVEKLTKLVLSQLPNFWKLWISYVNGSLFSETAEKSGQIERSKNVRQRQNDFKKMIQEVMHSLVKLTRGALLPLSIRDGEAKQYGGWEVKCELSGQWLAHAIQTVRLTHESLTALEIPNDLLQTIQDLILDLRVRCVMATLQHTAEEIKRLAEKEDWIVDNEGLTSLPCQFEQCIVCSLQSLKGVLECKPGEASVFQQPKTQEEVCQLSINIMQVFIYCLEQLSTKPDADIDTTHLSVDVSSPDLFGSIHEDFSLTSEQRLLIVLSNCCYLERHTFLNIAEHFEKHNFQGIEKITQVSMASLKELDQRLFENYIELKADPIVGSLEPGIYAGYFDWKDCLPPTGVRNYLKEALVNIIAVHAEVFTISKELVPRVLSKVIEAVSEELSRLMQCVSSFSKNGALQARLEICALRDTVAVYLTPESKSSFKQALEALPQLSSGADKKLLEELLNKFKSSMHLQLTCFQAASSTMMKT
UniProt Q9NZB2: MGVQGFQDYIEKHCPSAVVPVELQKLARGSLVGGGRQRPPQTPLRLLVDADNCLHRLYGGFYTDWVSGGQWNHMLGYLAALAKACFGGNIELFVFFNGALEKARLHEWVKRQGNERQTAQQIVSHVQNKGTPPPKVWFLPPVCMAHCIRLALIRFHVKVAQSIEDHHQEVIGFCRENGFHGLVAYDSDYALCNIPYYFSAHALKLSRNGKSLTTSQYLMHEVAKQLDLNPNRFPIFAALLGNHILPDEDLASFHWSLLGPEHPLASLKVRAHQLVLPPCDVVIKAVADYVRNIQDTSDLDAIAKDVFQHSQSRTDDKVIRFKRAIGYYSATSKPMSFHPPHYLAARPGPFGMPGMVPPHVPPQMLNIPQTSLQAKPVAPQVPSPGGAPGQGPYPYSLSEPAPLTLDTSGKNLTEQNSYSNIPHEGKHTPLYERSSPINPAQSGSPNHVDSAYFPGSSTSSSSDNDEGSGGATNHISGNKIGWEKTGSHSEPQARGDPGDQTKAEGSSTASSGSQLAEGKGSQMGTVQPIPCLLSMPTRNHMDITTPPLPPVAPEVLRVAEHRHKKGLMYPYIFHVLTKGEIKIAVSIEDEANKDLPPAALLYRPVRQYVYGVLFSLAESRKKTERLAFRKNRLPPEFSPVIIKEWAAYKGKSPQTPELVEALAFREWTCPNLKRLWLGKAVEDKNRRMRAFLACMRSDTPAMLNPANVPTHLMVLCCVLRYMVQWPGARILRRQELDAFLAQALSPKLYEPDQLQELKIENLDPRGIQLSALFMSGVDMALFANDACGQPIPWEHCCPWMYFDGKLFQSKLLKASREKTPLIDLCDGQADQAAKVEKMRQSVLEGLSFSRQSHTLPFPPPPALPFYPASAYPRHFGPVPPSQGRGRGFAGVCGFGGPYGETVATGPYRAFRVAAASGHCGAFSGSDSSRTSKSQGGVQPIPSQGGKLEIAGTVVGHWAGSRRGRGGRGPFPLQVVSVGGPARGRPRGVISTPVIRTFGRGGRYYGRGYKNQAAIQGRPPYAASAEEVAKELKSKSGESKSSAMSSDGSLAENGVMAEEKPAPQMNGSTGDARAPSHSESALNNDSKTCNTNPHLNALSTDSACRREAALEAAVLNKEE
UniProt Q9NQT4, whole entry, looked up: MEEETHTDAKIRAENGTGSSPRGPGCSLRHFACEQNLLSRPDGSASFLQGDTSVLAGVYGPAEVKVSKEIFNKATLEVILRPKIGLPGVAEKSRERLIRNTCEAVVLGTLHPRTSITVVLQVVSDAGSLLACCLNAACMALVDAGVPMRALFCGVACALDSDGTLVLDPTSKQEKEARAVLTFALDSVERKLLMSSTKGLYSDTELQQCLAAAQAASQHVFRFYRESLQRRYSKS
UniProt Q96A26: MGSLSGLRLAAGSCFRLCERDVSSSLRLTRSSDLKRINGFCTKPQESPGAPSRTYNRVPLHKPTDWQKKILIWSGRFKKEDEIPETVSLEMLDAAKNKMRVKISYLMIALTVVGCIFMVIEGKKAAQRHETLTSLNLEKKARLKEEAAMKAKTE
UniProt Q9NPD3, whole entry, looked up: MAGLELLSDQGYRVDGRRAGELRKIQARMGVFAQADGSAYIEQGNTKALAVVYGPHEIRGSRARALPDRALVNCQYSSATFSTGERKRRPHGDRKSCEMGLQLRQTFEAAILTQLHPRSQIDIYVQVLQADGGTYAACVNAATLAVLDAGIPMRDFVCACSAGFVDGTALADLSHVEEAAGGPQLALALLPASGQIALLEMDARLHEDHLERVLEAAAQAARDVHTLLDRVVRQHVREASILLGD
UniProt Q96DF8: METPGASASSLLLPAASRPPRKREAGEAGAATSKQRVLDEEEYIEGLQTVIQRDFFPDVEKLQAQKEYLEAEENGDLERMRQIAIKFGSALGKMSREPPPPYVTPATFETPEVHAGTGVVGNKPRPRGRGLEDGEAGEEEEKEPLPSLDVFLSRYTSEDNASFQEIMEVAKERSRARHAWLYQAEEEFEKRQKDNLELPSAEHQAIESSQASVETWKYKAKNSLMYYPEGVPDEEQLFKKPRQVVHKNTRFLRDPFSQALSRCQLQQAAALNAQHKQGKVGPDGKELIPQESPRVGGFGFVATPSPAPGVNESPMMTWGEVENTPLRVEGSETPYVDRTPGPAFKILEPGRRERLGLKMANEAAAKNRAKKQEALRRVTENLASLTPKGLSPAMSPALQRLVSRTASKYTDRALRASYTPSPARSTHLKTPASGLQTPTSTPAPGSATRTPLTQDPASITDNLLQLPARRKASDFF
UniProt Q9NSI2: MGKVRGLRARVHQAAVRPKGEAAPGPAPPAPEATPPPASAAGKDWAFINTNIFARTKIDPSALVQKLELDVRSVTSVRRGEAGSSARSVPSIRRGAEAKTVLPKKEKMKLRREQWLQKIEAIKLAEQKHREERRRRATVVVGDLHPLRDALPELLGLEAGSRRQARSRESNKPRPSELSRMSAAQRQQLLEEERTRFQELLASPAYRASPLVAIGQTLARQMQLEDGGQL
UniProt O60645: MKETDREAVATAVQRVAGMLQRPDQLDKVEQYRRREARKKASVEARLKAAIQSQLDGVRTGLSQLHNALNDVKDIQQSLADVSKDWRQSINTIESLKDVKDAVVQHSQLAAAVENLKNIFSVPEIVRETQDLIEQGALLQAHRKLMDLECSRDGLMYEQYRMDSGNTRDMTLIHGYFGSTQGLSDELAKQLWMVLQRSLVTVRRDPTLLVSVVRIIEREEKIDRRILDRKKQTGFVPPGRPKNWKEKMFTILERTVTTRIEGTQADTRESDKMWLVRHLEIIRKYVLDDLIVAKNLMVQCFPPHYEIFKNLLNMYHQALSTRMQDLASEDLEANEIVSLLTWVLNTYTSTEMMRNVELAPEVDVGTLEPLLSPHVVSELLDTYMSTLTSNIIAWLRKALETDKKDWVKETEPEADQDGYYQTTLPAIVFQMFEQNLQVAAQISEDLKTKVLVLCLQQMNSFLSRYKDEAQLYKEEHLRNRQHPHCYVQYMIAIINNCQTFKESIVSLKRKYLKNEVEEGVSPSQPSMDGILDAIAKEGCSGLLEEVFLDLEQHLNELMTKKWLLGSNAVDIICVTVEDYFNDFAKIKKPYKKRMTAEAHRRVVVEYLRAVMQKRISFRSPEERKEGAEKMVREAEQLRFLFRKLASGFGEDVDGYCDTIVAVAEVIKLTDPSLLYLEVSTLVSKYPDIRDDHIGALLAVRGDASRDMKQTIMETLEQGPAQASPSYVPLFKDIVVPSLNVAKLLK
UniProt Q6P587: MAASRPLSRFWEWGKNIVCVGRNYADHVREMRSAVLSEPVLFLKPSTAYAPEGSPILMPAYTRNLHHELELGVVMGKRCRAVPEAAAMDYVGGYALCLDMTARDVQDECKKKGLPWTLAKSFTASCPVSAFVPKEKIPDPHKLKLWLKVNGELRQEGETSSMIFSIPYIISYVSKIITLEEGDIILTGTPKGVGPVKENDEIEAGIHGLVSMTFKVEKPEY
UniProt Q9UBQ6: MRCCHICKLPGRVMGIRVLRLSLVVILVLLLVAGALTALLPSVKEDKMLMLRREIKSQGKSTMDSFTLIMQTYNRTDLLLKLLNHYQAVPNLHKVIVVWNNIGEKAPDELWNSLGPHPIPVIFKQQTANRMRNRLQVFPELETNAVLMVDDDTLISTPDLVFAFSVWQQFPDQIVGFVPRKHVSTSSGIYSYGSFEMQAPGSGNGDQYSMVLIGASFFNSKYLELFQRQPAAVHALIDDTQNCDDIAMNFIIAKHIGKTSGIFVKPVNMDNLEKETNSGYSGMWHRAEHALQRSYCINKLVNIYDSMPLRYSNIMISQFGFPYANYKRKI
UniProt Q14320: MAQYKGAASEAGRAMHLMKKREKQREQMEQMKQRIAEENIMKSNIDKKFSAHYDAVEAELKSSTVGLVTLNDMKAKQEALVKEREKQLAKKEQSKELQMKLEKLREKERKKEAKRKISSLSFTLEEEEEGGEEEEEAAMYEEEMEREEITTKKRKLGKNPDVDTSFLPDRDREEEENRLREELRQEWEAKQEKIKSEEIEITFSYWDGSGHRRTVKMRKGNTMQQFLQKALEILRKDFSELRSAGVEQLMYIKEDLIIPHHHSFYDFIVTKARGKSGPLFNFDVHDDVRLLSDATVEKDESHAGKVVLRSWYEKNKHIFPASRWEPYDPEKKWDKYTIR
UniProt Q96GK7: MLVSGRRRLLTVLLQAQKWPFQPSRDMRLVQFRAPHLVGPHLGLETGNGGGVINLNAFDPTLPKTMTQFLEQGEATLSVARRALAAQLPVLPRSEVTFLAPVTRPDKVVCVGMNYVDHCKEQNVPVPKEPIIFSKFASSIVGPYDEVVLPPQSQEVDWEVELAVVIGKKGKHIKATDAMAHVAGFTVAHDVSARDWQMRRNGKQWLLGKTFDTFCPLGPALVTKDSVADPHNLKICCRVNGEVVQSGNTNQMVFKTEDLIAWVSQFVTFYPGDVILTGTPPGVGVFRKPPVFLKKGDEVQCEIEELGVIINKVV
UniProt Q96KR6: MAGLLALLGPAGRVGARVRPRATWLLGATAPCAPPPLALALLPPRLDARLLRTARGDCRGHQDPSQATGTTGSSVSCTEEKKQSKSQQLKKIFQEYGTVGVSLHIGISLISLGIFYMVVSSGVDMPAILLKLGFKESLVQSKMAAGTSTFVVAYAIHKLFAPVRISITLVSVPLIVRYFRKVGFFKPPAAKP
UniProt Q5RKV6, whole entry, looked up: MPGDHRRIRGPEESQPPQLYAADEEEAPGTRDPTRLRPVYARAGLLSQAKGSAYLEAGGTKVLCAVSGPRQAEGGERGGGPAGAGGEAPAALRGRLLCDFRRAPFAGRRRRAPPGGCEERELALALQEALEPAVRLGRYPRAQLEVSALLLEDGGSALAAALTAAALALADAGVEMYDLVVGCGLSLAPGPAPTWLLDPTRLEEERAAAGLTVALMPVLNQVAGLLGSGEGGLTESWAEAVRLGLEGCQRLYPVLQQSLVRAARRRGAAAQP

This is one part of the list.

Compound in one assay: CN1CC[C@H](c2c(O)cc(O)c3c(=O)cc(-c4ccccc4Cl)oc23)[C@H](O)C1 [alvocidib]
The assay is described as follows: log2 fold change, soluble protein after heating vs DMSO (PISA); higher = thermal stabilisation; K562 lysate, 10 uM; active = over 0.2 and 3.5 SD of the protein, either way, in both replicates (recomputed). The essentials: (§1)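 Dounce homogenisation of K562 pellets in PBS pH 7.4 with 1 mM MgCl2 produced a crude extract, used at 1 mg/mL protein. Exposure to 10 μM compound lasted 30 min, and aliquots were then heated for 3 min across 48°C-58°C, pooled and brought to 0.5% NP-40 at 4°C. The supernatant after 21,000xg for 90 min was quantified by TMTpro 16plex LC-MS/MS with channel sums equalised. Duplicate values are given as log-two fold change in thermal stability relative to solvent controls.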
Turning to ETNK1 (UniProt Q9HBU6), the log2 fold change is inactive: -0.039.

For FAM83A (UniProt Q86UY5), the log2 fold change is inactive: -0.095.

FADS3 (UniProt Q9Y5Q0): the log2 fold change is inactive: -0.051.

Regarding EXOC2 (UniProt Q96KP1), the log2 fold change was inactive: 0.025.

In the case of FAM120A isoform 6 (UniProt Q9NZB2), the log2 fold change was inactive: 0.

In the case of EXOSC5 (UniProt Q9NQT4), the log2 fold change is inactive: -0.004.

With FAM162A (UniProt Q96A26), the log2 fold change is inactive: 0.072.

As for EZH2 isoform 2 (UniProt Q15910), the log2 fold change is inactive: 0.023.

Take EXOC4 (UniProt Q96A65): the log2 fold change is inactive: 0.03.

Consider EXOSC4 (UniProt Q9NPD3), for which the log2 fold change is inactive: -0.009.

For ESS2 (UniProt Q96DF8), the log2 fold change is inactive: 0.001.

For the target EXOC6 (UniProt Q8TAG9), the log2 fold change was inactive: -0.014.

Consider FADS1, A0A0A0MR51, for which the log2 fold change was inactive: 0.03.

With F5 (UniProt P12259), the log2 fold change was inactive: -0.028.

FAM207A (UniProt Q9NSI2): the log2 fold change was inactive: -0.004.

Turning to ESD (UniProt P10768), the log2 fold change is inactive: 0.019.

On to FAM122A (UniProt Q96E09), for which the log2 fold change is inactive: -0.034.

On to FAM114A2 (UniProt Q9NRY5), for which the log2 fold change is inactive: 0.021.

Regarding FAM136A (UniProt Q96C01), the log2 fold change was inactive: -0.022.

Regarding EXOC3 (UniProt O60645), the log2 fold change is inactive: 0.011.

EYA3 (UniProt Q99504): the log2 fold change is inactive: -0.012.

Regarding ERVK3-1, A0A0U1RQV1, the log2 fold change is inactive: -0.051.

On to ERLEC1 (UniProt Q96DZ1), for which the log2 fold change is inactive: 0.006.

Regarding ESYT1 isoform 2 (UniProt Q9BSJ8), the log2 fold change was inactive: -0.019.

In the case of FAHD1 (UniProt Q6P587), the log2 fold change was inactive: -0.122.

Take FAM49B (UniProt Q9NUQ9): the log2 fold change is inactive: -0.004.

For the target FABP5 (UniProt Q01469), the log2 fold change is inactive: 0.048.

Consider FAM83D (UniProt Q9H4H8), for which the log2 fold change is inactive: -0.009.

As for EXTL2 (UniProt Q9UBQ6), the log2 fold change is inactive: -0.016.

For the target FAM118A (UniProt Q9NWS6), the log2 fold change was inactive: 0.006.

Consider ESYT2 (UniProt H7BXI1), for which the log2 fold change is inactive: 0.02.

For ETFB (UniProt P38117), the log2 fold change is inactive: -0.026.

On to ERP29 (UniProt P30040), for which the log2 fold change was inactive: 0.07.

Take FAM50A (UniProt Q14320): the log2 fold change is inactive: 0.01.

With ERICH1 (UniProt Q86X53), the log2 fold change was inactive: 0.041.

On to FAHD2A (UniProt Q96GK7), for which the log2 fold change is inactive: -0.011.

With FAM210B (UniProt Q96KR6), the log2 fold change was inactive: -0.023.

Turning to ETF1 (UniProt P62495), the log2 fold change was inactive: 0.008.

In the case of EXOSC6 (UniProt Q5RKV6), the log2 fold change is inactive: 0.015.

Consider EXOC7 (UniProt Q9UPT5), for which the log2 fold change is inactive: -0.011.

Compound in the next assay: CN1CCc2c(c3ccccc3n2Cc2ccc(C(=O)NO)cc2)C1 [Tubastatin A]
Described as above. The essentials:
as §1
Turning to ETNK1 (UniProt Q9HBU6), the log2 fold change was inactive: 0.002.

For FAM83A (UniProt Q86UY5), the log2 fold change was inactive: -0.039.

Take FADS3 (UniProt Q9Y5Q0): the log2 fold change was inactive: 0.1.

In the case of EXOC2 (UniProt Q96KP1), the log2 fold change was inactive: -0.107.

Consider FAM120A isoform 6 (UniProt Q9NZB2), for which the log2 fold change is inactive: -0.018.

With EXOSC5 (UniProt Q9NQT4), the log2 fold change is inactive: 0.048.

In the case of FAM162A (UniProt Q96A26), the log2 fold change was inactive: -0.015.

Take EZH2 isoform 2 (UniProt Q15910): the log2 fold change was inactive: -0.156.

For EXOC4 (UniProt Q96A65), the log2 fold change was inactive: -0.073.

As for EXOSC4 (UniProt Q9NPD3), the log2 fold change was inactive: 0.047.

ESS2 (UniProt Q96DF8): the log2 fold change is inactive: -0.014.

On to EXOC6 (UniProt Q8TAG9), for which the log2 fold change is inactive: -0.092.

For the target FADS1, A0A0A0MR51, the log2 fold change is inactive: 0.1.

Consider F5 (UniProt P12259), for which the log2 fold change was inactive: -0.009.

Turning to FAM207A (UniProt Q9NSI2), the log2 fold change is inactive: 0.034.

Turning to ESD (UniProt P10768), the log2 fold change is inactive: 0.005.

For the target FAM122A (UniProt Q96E09), the log2 fold change was inactive: 0.172.

In the case of FAM114A2 (UniProt Q9NRY5), the log2 fold change was inactive: 0.134.

Turning to FAM136A (UniProt Q96C01), the log2 fold change is inactive: 0.021.

With EXOC3 (UniProt O60645), the log2 fold change was inactive: -0.063.

In the case of EYA3 (UniProt Q99504), the log2 fold change is inactive: -0.041.

Turning to ERVK3-1, A0A0U1RQV1, the log2 fold change was inactive: 0.008.

Consider ERLEC1 (UniProt Q96DZ1), for which the log2 fold change was inactive: 0.03.

As to ESYT1 isoform 2 (UniProt Q9BSJ8), the log2 fold change is inactive: 0.042.

As for FAHD1 (UniProt Q6P587), the log2 fold change was inactive: 0.136.

For FAM49B (UniProt Q9NUQ9), the log2 fold change is inactive: 0.021.

Regarding FABP5 (UniProt Q01469), the log2 fold change was inactive: 0.055.

FAM83D (UniProt Q9H4H8): the log2 fold change was inactive: -0.044.

As for EXTL2 (UniProt Q9UBQ6), the log2 fold change is inactive: 0.

As to FAM118A (UniProt Q9NWS6), the log2 fold change is inactive: -0.153.

ESYT2 (UniProt H7BXI1): the log2 fold change is inactive: 0.038.

In the case of ETFB (UniProt P38117), the log2 fold change is inactive: 0.076.

In the case of ERP29 (UniProt P30040), the log2 fold change is inactive: 0.023.

As to FAM50A (UniProt Q14320), the log2 fold change is inactive: 0.015.

Regarding ERICH1 (UniProt Q86X53), the log2 fold change is inactive: -0.012.

Regarding FAHD2A (UniProt Q96GK7), the log2 fold change was inactive: 0.008.

Regarding FAM210B (UniProt Q96KR6), the log2 fold change was inactive: 0.009.

As for ETF1 (UniProt P62495), the log2 fold change was inactive: 0.008.

With EXOSC6 (UniProt Q5RKV6), the log2 fold change was inactive: 0.056.

Turning to EXOC7 (UniProt Q9UPT5), the log2 fold change was inactive: -0.022.
